Laboratory results taken from doi:10.1101/2020.06.14.150508.
These are yes or no findings as the source states them, for the method shown. In cells and extracts the contact can be indirect. Some results given as binding are weak or reduced against the parent protein; the word gives no strength.

Experiments:
[1] = target: MKK7^[change]-RFP (Arabidopsis thaliana) (UniProt Q9LPQ3); assay: FRET or BRET
[2] = target: MKK7^[change]-HA (Arabidopsis thaliana) (UniProt Q9LPQ3); assay: co-IP
[3] = target: MKK7^[change]-cluc (Arabidopsis thaliana) (UniProt Q9LPQ3); assay: split reporter

HopZ1a^C216A-GFP (from UniProt Q6VE93 1-369)
binding [1]: binds

HopZ1a^C216A-3xFLAG (from UniProt Q6VE93 1-369)
binding [2]: binds

HopZ1a^C216A-nluc (from UniProt Q6VE93 1-369)
binding [3]: binds
